Percent effect of library compounds

Amino acid sequences for entries named in this document (tags omitted).
UniProt P9WPC5, whole entry: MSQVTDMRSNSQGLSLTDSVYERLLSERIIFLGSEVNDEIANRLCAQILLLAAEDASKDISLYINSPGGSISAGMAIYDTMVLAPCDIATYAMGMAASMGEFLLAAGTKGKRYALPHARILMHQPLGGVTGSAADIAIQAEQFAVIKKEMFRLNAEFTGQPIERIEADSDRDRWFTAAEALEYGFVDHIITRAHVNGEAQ
UniProt P9WPC3, whole entry partner: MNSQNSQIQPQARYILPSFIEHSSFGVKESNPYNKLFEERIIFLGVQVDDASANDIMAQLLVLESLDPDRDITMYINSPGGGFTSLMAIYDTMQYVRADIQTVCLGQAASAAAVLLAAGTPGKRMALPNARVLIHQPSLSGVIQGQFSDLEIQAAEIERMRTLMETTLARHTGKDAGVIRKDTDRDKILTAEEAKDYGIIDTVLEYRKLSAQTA

Toxoplasma: 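Assay of Toxoplasma gondii numbers, read through their beta-galactosidase reporter with a colour substrate. Compounds at 10 µM. The record gives no direction; the compounds picked for IC50 retests had high values, so higher reads as fewer parasites. Size under these conditions: about 67,000 compounds, about 260 of them at 50% or above in at least one test.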
ClpP1P2: 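Protease assay of ClpP1P2, read by the AMC dye that it sets free. Target: ClpP1P2, Mycobacterium tuberculosis (UniProt P9WPC5 and UniProt P9WPC3). Compounds at 50 µM. Direction is inferred from only a few compounds that gave an IC50; most scored high, so higher reads as stronger inhibition. Most other retested compounds had strongly negative values. Of about 69,000 compounds tested this way, about 10 (0.015%) reached 50% or more in at least one test.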

The filed quantity is “Percent Effect” (%).
How 0% and 100% were set is not recorded. Most values in the screen are low, and negative values occur.
The compounds are a random part of those screened.
A dash means the value is not listed here; it may have been measured.

SMILES,Toxoplasma,ClpP1P2
CCC(=O)NCC1(O)CCC(C(C)(C)C)CC1 (stereo not given),2.754%,-3.464%
COc1ccc(CCCNCc2c(C)nn(C)c2N(C)C)cc1OC,-2.746%,-17.55%
COc1cccc2cc(CNCc3ccc(N4CCCC4)nc3)oc12,8.869%,-0.5917%
Cc1cc(-c2cnc(N3CCNC(=O)C3)nc2-c2ccc(C)o2)on1,-4.603%,3.693%
COCC(NC(=O)c1cn(-c2cccc(Cl)c2F)nn1)C1CC1 (stereo not given),-5.352%,-21.39%
COc1ccccc1CN1C[C@@H]2COC[C@]2(COCc2ccncc2)C1,-,8.107%
O=C(Cn1cc(I)cn1)N1CCNC1=O,-9.07%,-7.244%
O=C(O)C(F)(F)F.[H][C@@]12COC[C@]1(CNC(=O)N1CCCC1)CN(Cc1cc(C)on1)C2,-3.14%,-
COc1cc(N2C[C@H]3CCC[C@@H](CN4CCOCC4)[C@H]3C2)ncn1,-,8.175%
[H][C@]12CC[C@](O)(c3ccc(C)cc3)[C@@]1([H])CN(S(=O)(=O)CC)C2,11.27%,-
CCCc1nc(CN2CCCC(c3noc(C4CC4)n3)C2)no1 (stereo not given),22.33%,-18.25%
Fc1ccc(CN2CCc3ncnc(C4CCOC4)c3CC2)cc1 (stereo not given),-,-11.34%
O=C(O)C(F)(F)F.O=C(O)C(F)(F)F.[H][C@@]12CN(Cc3ccsc3)CCO[C@]1([H])CN(c1ccc(C)nn1)C2,-6.455%,-
Cc1cc(-c2cc(-c3cc(CC(=O)O)cs3)nc(N)c2C#N)oc1C,13.54%,-460.4%
CCOCC1CN(C(=O)COc2ccccc2C)Cc2ncn(C)c21.O=C(O)C(F)(F)F (stereo not given),-0.5933%,-
Cc1oc(-c2ccoc2)nc1CN1CCC[C@H]1CO,75.83%,-8.762%
CCc1ccc2nc(C)cc(C(=O)N[C@@H]3C[C@@H](CO)N(C)C3)c2c1,-23.58%,-17.65%
Cn1c(=O)n(C)c2cc(C3SCC(=O)Nc4ccsc43)ccc21 (stereo not given),-1.435%,5.426%
Cc1ccc(C(=O)NC2CCN(C(=O)Nc3ccncc3)CC2)o1,9.019%,-34.69%
Cn1cc(CNc2cnn(CC3CCCO3)c2)c(-c2ccncc2)n1 (stereo not given),0.6952%,-1.38%
CC(Cn1cccn1)NCc1csc(-c2ccccc2F)n1 (stereo not given),2.47%,6.916%
NC(=O)N1CCC2(CC1)CC(=O)N(CC1CCCO1)c1ccccc12 (stereo not given),2.256%,-1.845%
CCN(CC)C(=O)CSc1ccc(C(F)(F)F)cn1,-3.161%,3.854%
CN1CCCCC12CCN(c1nncs1)CC2,-,14%
COC(=O)c1cccc(S(=O)(=O)Nc2ncc(C)s2)c1,5.394%,-3.158%
CCOCC1CN(S(=O)(=O)CC)Cc2cnn(CC3CC3)c21 (stereo not given),-,-12.2%
CN(C)C(=O)CN1C(=O)CCC12CCN(Cc1ccsc1)CC2,-,0.4804%
CN(C)C(=O)[C@H]1C[C@H]2OCC[C@H]2N(Cc2ccc3ccccc3n2)C1,-,16.62%
COc1ccc(NC(=O)CN2CCCCC2C2OCCO2)cc1 (stereo not given),-0.3751%,6.599%
CCN(C)S(=O)(=O)NCC(O)c1c(Cl)cccc1Cl (stereo not given),7.82%,0.03689%
Cc1noc(C)c1CN1CCn2c(COC(C)C)nnc2C1,-15.33%,2.781%
O=C(Nc1ccccc1)C1CCCN(C(=O)Cn2cncn2)C1 (stereo not given),-4.438%,13.67%
Cc1cc(C2CCC2)nc(N(C)Cc2cnccn2)n1,-17.18%,-5.242%
Cc1ccc(C2(CN3CCN(Cc4cncn4C)CC3)CC2)cc1,-,10.03%
O=C1CO[C@@H]2CN(CC3CCOCC3)C[C@H]2N1CC1CC1,-,3.53%
Cc1cc(N)nc(SC2CCCN(Cc3ccccc3)C2=O)n1 (stereo not given),9.107%,1.954%
O=C(CCc1ccc(Cl)cc1)NC1CCN(c2cccc(F)c2)CC1,19.15%,-9.055%
Cc1oncc1C(=O)N1CC2CC1(C(=O)N(C)C)C2,-20.38%,8.174%
Cc1cc(CN(C)C(=O)C(c2ccccc2F)N(C)C)ccn1 (stereo not given),-51.91%,-8.441%
c1ccc2oc(CN3CCCC3c3noc(C4CC4)n3)nc2c1 (stereo not given),3.566%,-37.41%

Source: ChEMBL document CHEMBL3988442, “University of Dundee, Small-Polar-MMV Screening Library” (2021).